Binding data for 2 substances are collected here from publication PMC9898340.

Protein sequences, listed by entry. Tags and fused reporters are not part of them.
UniProt P40763: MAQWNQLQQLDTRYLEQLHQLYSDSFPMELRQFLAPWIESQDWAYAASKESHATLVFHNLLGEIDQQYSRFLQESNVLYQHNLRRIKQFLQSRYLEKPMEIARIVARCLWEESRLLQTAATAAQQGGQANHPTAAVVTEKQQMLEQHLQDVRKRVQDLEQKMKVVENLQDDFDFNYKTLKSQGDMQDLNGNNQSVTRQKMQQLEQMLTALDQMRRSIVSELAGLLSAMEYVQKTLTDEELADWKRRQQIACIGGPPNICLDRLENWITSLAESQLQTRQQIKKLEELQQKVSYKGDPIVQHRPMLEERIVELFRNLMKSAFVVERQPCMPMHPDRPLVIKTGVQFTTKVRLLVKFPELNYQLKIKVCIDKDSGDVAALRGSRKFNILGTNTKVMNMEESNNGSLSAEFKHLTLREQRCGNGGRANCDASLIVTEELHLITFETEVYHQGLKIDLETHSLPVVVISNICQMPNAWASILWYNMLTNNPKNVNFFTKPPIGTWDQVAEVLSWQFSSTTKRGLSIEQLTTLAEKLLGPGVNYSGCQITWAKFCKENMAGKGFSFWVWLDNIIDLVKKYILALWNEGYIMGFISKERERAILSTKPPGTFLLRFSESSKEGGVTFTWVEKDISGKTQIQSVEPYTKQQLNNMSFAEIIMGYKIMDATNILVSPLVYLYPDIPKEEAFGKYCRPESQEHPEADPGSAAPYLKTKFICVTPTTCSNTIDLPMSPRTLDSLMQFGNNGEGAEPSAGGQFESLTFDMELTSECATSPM
UniProt P78337: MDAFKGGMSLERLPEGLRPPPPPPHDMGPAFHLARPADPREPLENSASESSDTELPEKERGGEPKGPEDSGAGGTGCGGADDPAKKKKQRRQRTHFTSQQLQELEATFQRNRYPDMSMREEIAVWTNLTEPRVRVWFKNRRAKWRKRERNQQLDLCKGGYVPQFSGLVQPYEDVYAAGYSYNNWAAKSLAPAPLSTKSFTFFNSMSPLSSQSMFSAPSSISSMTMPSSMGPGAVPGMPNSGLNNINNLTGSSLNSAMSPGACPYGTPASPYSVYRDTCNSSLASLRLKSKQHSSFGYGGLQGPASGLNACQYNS

Assay [1] deals with Signal transducer and activator of transcription 3 (STAT3) (UniProt P40763). The experiment in a line: co-IP; HOS and U2OS cells; which protein was precipitated is not told.
Assay [2] concerns the target Myc-tagged wildtype STAT3 (UniProt P40763). Put plainly: co-IP; HEK 293 T cells; STAT3 wildtype or domain-deleted with PITX1; which protein was precipitated is not told.

No constants are given. Whether binding was seen depends on the method and setting. Binding seen in cells or lysates may run through a third protein. Some results given as binding are weak or reduced against the parent protein; the word gives no strength.

As for “Paired-like homeodomain transcription factor 1 (PITX1) (from UniProt P78337 1-314)”, the binding result in assay [1] is given as “binds”.
As to “Flag-tagged PITX1 (from UniProt P78337 1-314)”, in assay [2], the binding entry is on record as “binds”.
